Some of the results follow. Values are raw readings; no control value is given beside them.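 In the initial screen, polymyxin B was used at a concentration that permeabilizes Salmonella's outer membrane but not its inner membrane. Maximum growth was set by DMSO wells with or without polymyxin B. Since plates varied, data were ranked per plate, and compounds giving the lowest OD600 advanced as hits.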
Tested on: Salmonella enterica serovar Typhimurium SL1344
Experiment: bacterial growth OD600 after 18 h with compound and polymyxin B; higher = more bacterial growth (less inhibition)
Settings: 50 µM, Mueller-Hinton broth

Compound	bacterial growth OD600 (polymyxin B 1 µg/mL)	bacterial growth OD600 (polymyxin B 0.75 µg/mL)
O=C(c1cn(CC2CCCO2)nn1)N1CCN(Cc2ccc3c(c2)OCO3)CC1 (stereo not given)	0.898	–
O=C(Nc1cccc(N2CCNC2=O)c1)C1CC12CCN(C(=O)c1ccccc1Cl)CC2 (stereo not given)	–	0.826
O=C(NCC1OCCc2ccccc21)c1coc(COc2ccccc2)n1 (stereo not given)	–	0.002
O=C([C@@H]1C[C@H]1c1ccccc1)N1Cc2ccccc2OC(c2ccccc2)C1 (stereo not given in full)	–	0.003
CC(C)/C=C/C(=O)N1CCC(C2(c3ccccn3)NC(=O)N(CCc3cccs3)C2=O)CC1 (stereo not given)	–	0.931
COC(=O)c1ccccc1C(=O)N1CCc2c(cnc(C)c2CNS(=O)(=O)c2cccs2)C1	–	0.88
CCCC1(C2CCN(C(=O)/C(F)=C/c3ccccc3)CC2)NC(=O)N(Cc2ccco2)C1=O (stereo not given)	–	0.827
CC(=O)N1CCN(c2ncccc2CNc2ncccc2C(F)(F)F)CC1	0.911	–
CCc1cc(CNC(=O)CC(c2ccccc2)c2ccc3c(c2)OCO3)on1 (stereo not given)	0.94	–
CN(Cc1nc(Cc2ccccc2Cl)no1)C(C1CC1)C1CC1	0.605	–
O=C(CC1=CCCCC1)NC1CC(=O)N(Cc2ccc(F)cc2)C1 (stereo not given)	0.917	–
O=C(C1=CCCC1)N1CCC(C2(c3ccccn3)NC(=O)N(CCc3cccs3)C2=O)CC1 (stereo not given)	–	0.818
O=C(NC1CC1)C1CCC(=O)N(Cc2cccc(C(F)(F)F)c2)C1 (stereo not given)	0.832	–
Cc1cccc(CN2CCCC3(CCN(C(=O)CCc4c(C)nn(C)c4C)C3)C2)c1 (stereo not given)	0.895	–
Cc1cc(C)n(CCN(C)C(=O)CC2(c3ccccc3C)CC(=O)N(Cc3cccnc3)C2=O)n1 (stereo not given)	–	0.824
C=CCO[C@H]1[C@H](NC(=O)CSC)c2ccccc2C12CCN(Cc1cccc(OC)c1OC)CC2	–	0.893
COc1ccc(CN2CCC3(CC2)c2ccccc2[C@@H](NC(=O)c2ccco2)[C@@H]3OC)c(F)c1	–	0.855
O=C(C[C@@H]1C[C@@H]2C=C[C@H]1C2)NCc1cccnc1-n1cnc2ccccc21	0.883	–
Cc1cc(C(=O)N(CCc2ccccc2)CC2CCCN(C)C2)nn1C (stereo not given)	0.863	–
COC(=O)C1CCN(Cc2nc(-c3ccc(C(F)(F)F)cc3)oc2C)CC1	–	0.731

Some of the entries so far, in CSV form.
Compound,bacterial growth OD600 (polymyxin B 1 µg/mL),bacterial growth OD600 (polymyxin B 0.75 µg/mL)
O=C(Nc1cccc(N2CCNC2=O)c1)C1CC12CCN(C(=O)c1ccccc1Cl)CC2 (stereo not given),–,0.826
CC(=O)N1CCN(c2ncccc2CNc2ncccc2C(F)(F)F)CC1,0.911,–

Source: the supplement of paper PMC12889115
